Data from publication PMC3572101.
Results are given in words; binding and its absence hold for the method and conditions named. In cells and extracts the contact can be indirect. Some binding calls cover weakened binding; strength is not graded here.

Chains of the proteins cited; added tags and fusions are not shown.
UniProt Q07812: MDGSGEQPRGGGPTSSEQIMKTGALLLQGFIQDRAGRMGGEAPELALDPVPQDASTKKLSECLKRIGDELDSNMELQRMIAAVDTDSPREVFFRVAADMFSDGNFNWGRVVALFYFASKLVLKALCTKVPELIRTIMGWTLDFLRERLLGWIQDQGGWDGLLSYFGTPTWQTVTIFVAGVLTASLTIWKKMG
UniProt P12956: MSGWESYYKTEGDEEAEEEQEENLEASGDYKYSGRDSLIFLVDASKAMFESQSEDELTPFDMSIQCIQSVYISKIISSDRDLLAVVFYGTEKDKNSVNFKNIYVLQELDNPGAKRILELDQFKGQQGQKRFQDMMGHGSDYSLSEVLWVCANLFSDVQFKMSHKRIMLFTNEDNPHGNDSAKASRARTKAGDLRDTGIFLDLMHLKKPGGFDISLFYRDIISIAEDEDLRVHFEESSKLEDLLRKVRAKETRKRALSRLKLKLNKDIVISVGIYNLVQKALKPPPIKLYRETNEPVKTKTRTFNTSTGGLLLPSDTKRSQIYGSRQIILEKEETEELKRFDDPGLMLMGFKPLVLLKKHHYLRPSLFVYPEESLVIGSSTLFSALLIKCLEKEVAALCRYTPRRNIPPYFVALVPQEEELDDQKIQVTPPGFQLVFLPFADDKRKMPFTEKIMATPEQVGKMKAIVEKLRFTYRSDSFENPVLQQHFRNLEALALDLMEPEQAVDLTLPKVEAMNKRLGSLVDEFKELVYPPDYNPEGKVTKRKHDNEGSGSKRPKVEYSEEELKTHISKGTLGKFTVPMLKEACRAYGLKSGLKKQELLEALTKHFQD

Legend:
[1] = molecular target: Bax (human (endogenous in LNCaP)) (UniProt Q07812); assay: co-IP; unirradiated U7-control LNCaP cells; 100 ug total extract, 4 ug anti-Bax (clone 2D2) in PBS + 0.05% NP-40, overnight at 4°C, Protein G-Agarose; blot for Ku70
[2] = molecular target: Bax (human (endogenous in LNCaP)) (UniProt Q07812); assay: co-IP; U7-control LNCaP cells 24 hrs after irradiation; 100 ug total extract, anti-Bax (clone 2D2) in PBS + 0.05% NP-40, overnight at 4°C, Protein G-Agarose; blot for Ku70

binding [1]: binds
binding [2]: binds weakly
Substance: Ku70 (from UniProt P12956 1-609)
